Laboratory results published in patent publication US20150056162A1.
Results are given in words; binding and its absence hold for the method and conditions named. Some entries that bind do so weakly or less than the wild type.

Protein sequences, listed by entry. Tags and fused reporters are not part of them. Lines headed by an entry give the natural chain unless they say otherwise; changes in a name come on top.
UniProt P35225: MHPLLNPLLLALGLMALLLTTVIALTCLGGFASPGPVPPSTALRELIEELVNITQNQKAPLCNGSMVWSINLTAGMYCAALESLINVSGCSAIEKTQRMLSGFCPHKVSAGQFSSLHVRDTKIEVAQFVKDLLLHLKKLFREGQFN

Molecular target: T1, IL-13Rα2, biotinylated (human) (UniProt Q14627)
T1 sequence (biotinylated (site not stated), looked up): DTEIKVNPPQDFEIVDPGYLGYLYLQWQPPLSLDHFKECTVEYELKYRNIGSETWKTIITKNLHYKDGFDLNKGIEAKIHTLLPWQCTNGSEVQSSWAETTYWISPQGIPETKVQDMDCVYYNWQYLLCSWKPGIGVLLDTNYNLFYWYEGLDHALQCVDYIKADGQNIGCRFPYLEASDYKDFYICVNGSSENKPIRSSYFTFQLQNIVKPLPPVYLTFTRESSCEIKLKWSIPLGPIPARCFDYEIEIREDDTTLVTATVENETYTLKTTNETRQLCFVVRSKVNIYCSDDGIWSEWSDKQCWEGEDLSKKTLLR
Assay: SPR, biotinylated receptor captured on SA chip (FIG. 2A)

Q: With “IL-13 variant C11 (from UniProt P35225 34-146) (ligand)” as the substance, how does the binding read?
A: binds
